Assay results published in PMC12431657, “Discovery and mechanistic insights of dibenzoylmethane as a broad spectrum inhibitor of coronavirus” (PLOS Pathogens, 2025).
Structures can show the parent of a compound that is named as a salt. Where two headings read alike, the source gives them in different places. In all, about 3,300 compounds went through this assay and about 60 (2%) showed an effect of 50% or more. The list shows a part of the results.

Tested on: HCoV-OC43
Parameters: species or system RD; HTS, protection from HCoV-OC43 induced cell death, luminescent cell viability (CellCounting-Lite 2.0), inhibition rate
Details: 24 h post infection, 1 h compound pre-incubation, 10 µM, inhibitor

With `CC(=O)O[C@]12CCC(C(=O)O)=CC[C@]13CC[C@H]2[C@@](C)(/C=C/C=C(\C)C(=O)O)OC3=O` [Pseudolaric Acid C2] the “OC43 Inhibition rate” value was 3.3%.
For `CCCCC[C@H](O)/C=C/[C@H]1C(=O)C[C@H](O)[C@@H]1C/C=C\CCCC(=O)O` [Prostaglandin D2], the “OC43 Inhibition rate” value was 1.7%.
`CC(C)(C)CC(C)(C)c1ccc(O)cc1` [4-tert-Octylphenol] was tested, and the “OC43 Inhibition rate” value was -0.1%.
In the case of `CC(C)=CCc1c(O)ccc(C(=O)[C@@H]2[C@@H](c3c(O)cc(O)c4c(=O)c(CC=C(C)C)c(-c5ccc(O)cc5O)oc34)C=C(C)C[C@H]2c2ccc(O)cc2O)c1O` [Kuwanon H], the “OC43 Inhibition rate” value was 13.4%.
For `CC(C)=CCC[C@@H](C)[C@H]1CC[C@H]2[C@@H]3CC=C4C[C@@H](O)CC[C@]4(C)[C@H]3CC[C@]12C` [Desmosterol], the “OC43 Inhibition rate” value was -0.3%.
With `COc1cc2c(cc1O)-c1c(OC)c(O)cc3c1[C@H](C2)NCC3` [Laetanine] the “OC43 Inhibition rate” value was -1.2%.
With `O=C(CC(O)(CC(=O)OCc1ccc(O[C@@H]2O[C@H](CO)[C@@H](O)[C@H](O)[C@H]2O)cc1)C(=O)O)OCc1ccc(O[C@@H]2O[C@H](CO)[C@@H](O)[C@H](O)[C@H]2O)cc1` [Parishin C] the “OC43 Inhibition rate” value was -0.4%.
With `O=c1cccccc1O` [Tropolone] the “OC43 Inhibition rate” value was 4.3%.
`O=C1O[C@H]([C@@H](O)CO)C(O)=C1O[C@@H]1O[C@H](CO)[C@@H](O)[C@H](O)[C@H]1O` [2-O-β-D-Glucopyranosyl-L-ascorbic acid] was tested, and the “OC43 Inhibition rate” value was 1.4%.
With `Nc1ncnc2c1ncn2[C@H]1C[C@H](O)[C@@H](CO)O1` [2'-Deoxyadenosine monohydrate] the “OC43 Inhibition rate” value (OC43 Inhibition rate, 24 h) was -2.3%.
For `COc1cc(O[C@@H]2O[C@H](CO[C@@H]3O[C@H](CO)[C@@H](O)[C@H](O)[C@H]3O)[C@@H](O)[C@H](O)[C@H]2O)c2c(O)c3c(=O)oc(C)cc3cc2c1` [Cassiaside C], the “OC43 Inhibition rate” value was -1.8%.
`O=C(CCc1ccc(O)c(O)c1)NCCCNCCCCNCCCNC(=O)CCc1ccc(O)c(O)c1` [Kukoamine A] was tested, and the “OC43 Inhibition rate” value was 2.2%.
With `CCCCCCCC(=O)O` [Octanoic acid] the “OC43 Inhibition rate” value was -0.3%.
`CC(CCC(=O)O)C(=O)O` (stereo not shown) [2-Methylpentanedioic acid] was tested, and the “OC43 Inhibition rate” value was -0.3%.
With `O=c1cc(-c2ccc(O)c(O)c2)oc2cc(O)c([C@@H]3O[C@H](CO)[C@@H](O)[C@H](O)[C@H]3O)c(O)c12` [Isoorientin] the “OC43 Inhibition rate” value was 0.3%.
In the case of `CCOC(=O)/C=C/c1ccc(O)cc1` [p-Coumaric Acid Ethyl Ester], the “OC43 Inhibition rate” value was 0%.
`CC(C)C[C@@H](O)C(=O)O` [(R)-Leucic acid] was tested, and the “OC43 Inhibition rate” value was -0.7%.
`C[C@@H]1O[C@@H](OC[C@H]2O[C@@H](Oc3c(-c4ccc(O)cc4)oc4cc(O)cc(O)c4c3=O)[C@H](O[C@@H]3O[C@H](CO)[C@@H](O)[C@H](O)[C@H]3O)[C@@H](O)[C@@H]2O)[C@H](O)[C@H](O)[C@H]1O` [Kaempferol-3-O-(2''-O-β-D-glucopyl)-β-D-rutinoside] was tested, and the “OC43 Inhibition rate” value was 0.7%.
With `CC(C)=CCC[C@@](O)(CO[C@@H]1O[C@H](CO)[C@@H](O)[C@H](O)[C@H]1O)[C@H]1CC[C@]2(C)[C@@H]1CC[C@@H]1[C@@]3(C=O)CC[C@H](O[C@@H]4OC[C@H](O)[C@H](O[C@@H]5OC[C@@H](O)[C@H](O)[C@H]5O)[C@H]4O[C@@H]4O[C@@H](C)[C@H](O)[C@@H](O)[C@H]4O)C(C)(C)[C@@H]3CC[C@]12C` [Gypenoside XLIX] the “OC43 Inhibition rate” value was -0.4%.
With `COc1ccc(C2CC(=O)c3c(O)cc(O)cc3O2)cc1O` (racemic) [(Rac)-Hesperetin] the “OC43 Inhibition rate” value was 0.5%.
In the case of `C/C=C(/C)C(=O)O[C@@H]1c2c(ccc3ccc(=O)oc23)OC(C)(C)[C@@H]1OC(=O)/C(C)=C\C` [(-)-Anomalin], the “OC43 Inhibition rate” value was 32.9%.
For `COc1cc(O)c2c(c1)O[C@H](c1ccccc1)CC2=O` [Pinostrobin], the “OC43 Inhibition rate” value was 1%.
With `C=C[C@H]1[C@H](O[C@@H]2O[C@H](CO)[C@@H](O)[C@H](O)[C@H]2O)OC=C(C(=O)OC)[C@H]1CCOC(=O)c1cccc(O[C@@H]2O[C@H](CO)[C@@H](O)[C@H](O)[C@H]2O)c1O` [Depressine] the “OC43 Inhibition rate” value was 0.1%.
With `Cc1cccc2c3c(ccc12)C1=C(C(=O)C3=O)[C@@H](C)CO1` [Dihydrotanshinone I] the “OC43 Inhibition rate” value was 1%.
For `O=C1CCC[C@@H]2[C@H]3CCCN4CCC[C@@H](CN12)[C@H]34` [Allomatrine], the “OC43 Inhibition rate” value was 2.9%.
For `COC(=O)Cc1c[nH]c2ccccc12` [Methyl 2-(1H-indol-3-yl)acetate], the “OC43 Inhibition rate” value was -0.1%.
`C[C@]12CC[C@@H]3c4ccc(O)cc4CC[C@H]3[C@@H]1C[C@@H](O)[C@@H]2O` [Estriol] was tested, and the “OC43 Inhibition rate” value was -0.2%.
`Cc1ccc(CO)o1` [5-Methyl-2-furanmethanol] was tested, and the “OC43 Inhibition rate” value was -2.2%.
With `CC(=O)OC[C@H]1O[C@@H](OC[C@H]2O[C@@H](OC(=O)[C@]34CCC(C)(C)C[C@H]3C3=CC[C@@H]5[C@@]6(C)CC[C@H](O[C@@H]7OC[C@H](O)[C@H](O)[C@H]7O[C@@H]7O[C@H](CO)[C@@H](O)[C@H](O)[C@H]7O)C(C)(C)[C@@H]6CC[C@@]5(C)[C@]3(C)CC4)[C@H](O)[C@@H](O)[C@@H]2O)[C@H](O)[C@@H](O)[C@@H]1O[C@@H]1O[C@@H](C)[C@H](O)[C@@H](O)[C@H]1O` [Acanthopanaxoside B] the “OC43 Inhibition rate” value was 7.1%.
With `O=C(/C=C/c1ccc(O)cc1)c1ccc(O[C@@H]2O[C@H](CO)[C@@H](O)[C@H](O)[C@H]2O)cc1O` [Neoisoliquiritin] the “OC43 Inhibition rate” value was 0.2%.
For `Cc1cnccn1` [2-Methylpyrazine], the “OC43 Inhibition rate” value was 3.3%.
In the case of `COc1c(/C=C/C(=O)c2ccc(O)cc2)ccc(O)c1O` [Licochalcone B], the “OC43 Inhibition rate” value was 45.6%.
With `O=C(O)[C@@H]1CCN1` [L-Azetidine-2-carboxylic acid] the “OC43 Inhibition rate” value was -0.5%.
For `COc1cc([C@H]2Oc3ccc(-c4cc(=O)c5c(O)cc(O)cc5o4)cc3O[C@@H]2CO)ccc1O` (racemic) [(Rac)-Hydnocarpin], the “OC43 Inhibition rate” value was 0%.
`C=CCS[S+]([O-])CC=C` (stereo not shown) [Allicin] was tested, and the “OC43 Inhibition rate” value was 0.3%.
`CCCCCC(=O)CC(=O)NC1CCOC1=O` (racemic) [N-(3-Oxooctanoyl)-DL-homoserine lactone] was tested, and the “OC43 Inhibition rate” value was 8.5%.
For `O=c1c(O)c(-c2ccc(O)c(O)c2)oc2cc(O[C@@H]3O[C@H](CO)[C@@H](O)[C@H](O)[C@H]3O)cc(O)c12` [Quercimeritrin], the “OC43 Inhibition rate” value was -1.1%.
With `CC(C)=CCC/C(C)=C/CC/C(C)=C/CC/C(C)=C/CC1=C(C)C(=O)c2ccccc2C1=O` [Menaquinone-4] the “OC43 Inhibition rate” value was -0.1%.
`CC(=O)N[C@@H]1[C@@H](O)[C@H](O)[C@@H](CO)O[C@@H]1O` [N-Acetyl-D-glucosamine] was tested, and the “OC43 Inhibition rate” value was 0%.
For `CN1[C@H]2C[C@H](OC(=O)[C@H](CO)c3ccccc3)C[C@@H]1[C@@H](O)C2` [Anisodamine], the “OC43 Inhibition rate” value (OC43 Inhibition rate, 24 h) was 3.1%.
With `CC(C)(O)[C@H](O)COc1c2ccoc2cc2oc(=O)ccc12` [Oxypeucedanin hydrate] the “OC43 Inhibition rate” value was -1.1%.
`Cc1cn([C@H]2C[C@H](O)[C@@H](COP(=O)(O)O)O2)c(=O)[nH]c1=O` [Thymidine-5'-monophosphate (disodium) salt] was tested, and the “OC43 Inhibition rate” value was 1.4%.
For `CCCCCCCC(=O)CCc1ccc(O)c(OC)c1` [Paradol], the “OC43 Inhibition rate” value was 45.1%.
For `CC(=O)N[C@@H](Cc1ccccc1)C(=O)O` [N-Acetyl-L-phenylalanine], the “OC43 Inhibition rate” value was -0.3%.
For `COc1cc2c(cc1OC)-c1cc3ccc4c(c3c[n+]1CC2)OCO4` [Epiberberine (chloride)], the “OC43 Inhibition rate” value was 0.9%.
For `CCCCCCCCCCCCCC(=O)OCC(O)CO` (stereo not shown) [1-Monomyristin], the “OC43 Inhibition rate” value was -1.3%.
`O=c1c(O[C@@H]2O[C@H](CO)[C@@H](O)[C@H](O)[C@H]2O[C@@H]2OC[C@@H](O)[C@H](O)[C@H]2O)c(-c2ccc(O)cc2)oc2cc(O)cc(O)c12` [Leucoside] was tested, and the “OC43 Inhibition rate” value was 2.1%.
In the case of `C[C@@H]1CC[C@@]2(OC1)O[C@H]1C[C@H]3[C@@H]4CC[C@@H]5C[C@@H](O)CC[C@]5(C)[C@H]4CC[C@]3(C)[C@H]1[C@@H]2C` [Smilagenin], the “OC43 Inhibition rate” value was 6.5%.
`CCCCC1OC(=O)c2ccccc21` (stereo not shown) [Butylphthalide] was tested, and the “OC43 Inhibition rate” value was 0.1%.
For `NCCS(=O)O` [Hypotaurine], the “OC43 Inhibition rate” value was -9%.
`O=C1c2ccccc2C(=O)c2cc(O)ccc21` [2-Hydroxyanthraquinone] was tested, and the “OC43 Inhibition rate” value was 5.4%.
For `C/C=C(/C)C(=O)O[C@H]1C(C)=C[C@]23C(=O)[C@@H](C=C4COC(C)(C)O[C@H]4[C@]12O)[C@H]1[C@@H](C[C@H]3C)C1(C)C` [Ingenol-5,20-acetonide-3-O-angelate], the “OC43 Inhibition rate” value was 69.8%.
With `CC[C@@H](C(=O)[C@@H](C)[C@@H](O)[C@H](C)CCc1ccc(C)c(O)c1C(=O)O)[C@H]1O[C@](CC)([C@H]2CC[C@](O)(CC)[C@H](C)O2)C[C@@H]1C` [Lasalocid] the “OC43 Inhibition rate” value (OC43 Inhibition rate, 24 h) was -1.4%.
`C=C1C[C@@]23CC[C@H]4[C@@](C)(CCC[C@@]4(C)C(=O)O[C@@H]4O[C@H](CO)[C@@H](O)[C@H](O)[C@H]4O[C@@H]4O[C@H](CO)[C@@H](O)[C@H](O)[C@H]4O)[C@@H]2CC[C@]1(O[C@@H]1O[C@H](CO)[C@@H](O)[C@H](O[C@@H]2O[C@H](CO)[C@@H](O)[C@H](O)[C@H]2O)[C@H]1O[C@@H]1O[C@H](CO)[C@@H](O)[C@H](O)[C@H]1O)C3` [Rebaudioside D] was tested, and the “OC43 Inhibition rate” value was 1.1%.
For `OCc1ccoc1` [3-Furanmethanol], the “OC43 Inhibition rate” value was -0.5%.
